Assay results as given in patent US5665861A, “Cardiodilatin fragment, process for preparing same and use thereof” (HaemoPep Pharma GmbH, priority 1987, dated 1997).
At least one peptide structure holds a part that was inferred or is arguable (an end, a ring closure or a residue).

How the values were obtained:
normal rats = assay: Effect on urine flow and fractional sodium excretion in anaesthetized normal rats; type: in vivo, Sprague-Dawley rats; conditions: 1.0 and 2.0 μg/kg intra-arterial bolus
[1] = tested on: conscious, chronically instrumented dogs; assay: Effect on urine volume and blood pressure in conscious, chronically instrumented dogs; type: in vivo, Beagle-dogs; conditions: 30 μg bolus
[2] = tested on: ANF-(99-126) and urodilatin receptors of cortico adrenal membrane cells; assay: Receptor binding study, 125J-ANF on bovine cortico-adrenal membranes; conditions: 25° C., read-out: binding properties, receptors of cortico adrenal membrane cells
[3] = tested on: healthy dogs and dogs with CHF (rapid right ventricular pacing 260/min.); assay: Hemodynamic, hormonal and renal effects in healthy dogs and dogs with CHF; type: in vivo; conditions: iv, whole dose-response 0.01 to 0.6 μg/kg/min.

CC[C@H](C)[C@@H]1NC(=O)[C@H](CCCNC(=N)N)NC(=O)[C@H](CC(=O)O)NC(=O)[C@H](CCSC)NC(=O)[C@H](CCCNC(=N)N)NC(=O)CNC(=O)CNC(=O)[C@H](Cc2ccccc2)NC(=O)[C@@H](NC(=O)[C@H](CO)NC(=O)[C@H](CO)NC(=O)[C@H](CCCNC(=N)N)NC(=O)[C@H](CCCNC(=N)N)NC(=O)[C@H](CC(C)C)NC(=O)[C@@H](N)CO)CSSC[C@@H](C(=O)N[C@@H](CC(N)=O)C(=O)N[C@@H](CO)C(=O)N[C@@H](Cc2ccccc2)C(=O)N[C@@H](CCCNC(=N)N)C(=O)N[C@@H](Cc2ccc(O)cc2)C(=O)O)NC(=O)CNC(=O)[C@H](CC(C)C)NC(=O)CNC(=O)[C@H](CO)NC(=O)[C@H](CCC(N)=O)NC(=O)[C@H](C)NC(=O)CNC1=O [ANF-(99-126)]
diuretic activity (urine flow) (normal rats): potent diuretic activity
time within which the diuretic effects are visible (normal rats): ≤ 5 min
mean arterial pressure after bolus injection ([1]; dogs): remained nearly unchanged
time within which diuresis increased ([1]; dogs of approximately 15 kg): ≤ 5 min
Kd [2]: 78 pM
renal effects [3]: no renal effects
